Results deposited as PubChem BioAssay AID743121 (NCATS, 2013)

Screen: 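Knock-downs that sensitise breast cancer cells to camptothecin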 (primary screen)
Cell system: MDA-MB-231 cells, a human breast cancer line
Knock-down reagent: single siRNA against human genes, 20 nM siRNA (0.8 pmol per well)
Timing: 120 h (drug added 48 h after transfection, read 72 h later)
Challenge: camptothecin 20 nM (about EC30) for 72 h; vehicle 0.1% DMSO in parallel plates
Detection: 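Cell viability by ATP luminescence (CellTiter-Glo) as % of non-targeting siRNA wells, and the log2 ratio of viability without drug over viability with camptothecin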
Reading the numbers: log2 vehicle/camptothecin viability: higher = stronger sensitisation to camptothecin; viability with camptothecin and viability without drug: higher = more viable cells
Hit rule: 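Active genes have an RSA gene-level p-value below 0.001, computed from the ratios of their separate siRNAs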
In all, the deposit lists about 26,000 reagents; this is a random part of them. 167 of them (0.63%) were called active. 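Calls are per gene from RSA p-values that are not deposited; an individual active-marked siRNA can sensitise only weakly.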 The numbers tell different reagents against one gene apart.

The first 9 entries, to show the layout:
no.	gene symbol	reagent no.	log2 vehicle/camptothecin viability	viability with camptothecin (% of control)	viability without drug (% of control)	activity call
1	YARS1	1	-0.297	87.5	71.2	inactive
2	YARS1	2	-0.241	59.1	50	inactive
3	YARS1	3	-0.0952	61	57.1	inactive
4	ASCL1	1	-0.778	67.3	39.3	inactive
5	ASCL1	2	-0.474	70.7	50.9	inactive
6	ASCL1	3	-0.0366	110	108	inactive
7	ASCL1	4	-0.135	113	103	inactive
8	POLD1	1	-0.0318	21.7	21.2	inactive
9	POLD1	2	0.124	31.9	34.7	inactive

Main list, repeating the preview:
no.	gene symbol	reagent no.	log2 vehicle/camptothecin viability	viability with camptothecin (% of control)	viability without drug (% of control)	activity call
1	YARS1	1	-0.297	87.5	71.2	inactive
2	YARS1	2	-0.241	59.1	50	inactive
3	YARS1	3	-0.0952	61	57.1	inactive
4	ASCL1	1	-0.778	67.3	39.3	inactive
5	ASCL1	2	-0.474	70.7	50.9	inactive
6	ASCL1	3	-0.0366	110	108	inactive
7	ASCL1	4	-0.135	113	103	inactive
8	POLD1	1	-0.0318	21.7	21.2	inactive
9	POLD1	2	0.124	31.9	34.7	inactive
10	POLD1	3	-0.361	77.8	60.6	inactive
11	POLD1	4	0.113	75.3	81.5	inactive
12	MAGT1	1	-0.171	99.8	88.6	inactive
13	MAGT1	2	-0.02	34.6	34.2	inactive
14	MAGT1	3	0.485	26.1	36.6	inactive
15	MAGT1	4	1.04	22.9	47	inactive
16	CHRNG	1	-0.438	86.2	63.7	inactive
17	CHRNG	2	-0.503	14	9.86	inactive
18	CHRNG	3	-0.446	71.1	52.2	inactive
19	GPR141	1	-0.212	116	100	inactive
20	GPR141	2	-0.115	97.9	90.4	inactive
21	GPR141	3	0.0201	64.5	65.4	inactive
22	GPR141	4	-0.0627	89.8	86	inactive
23	ADIPOR2	1	0.142	94.8	105	inactive
24	ADIPOR2	2	0.194	91.7	105	inactive
25	ADIPOR2	3	-0.15	87.4	78.8	inactive
26	ADIPOR2	4	-0.173	103	91.2	inactive
27	GFRA1	1	-0.146	66.9	60.5	inactive
28	GFRA1	2	1.33	28.9	72.5	inactive
29	GFRA1	3	0.0584	53.5	55.7	inactive
30	GFRA1	4	-0.501	32.5	22.9	inactive
31	OR7A5	1	-0.174	85.2	75.5	inactive
32	OR7A5	2	-0.0761	108	102	inactive
33	OR7A5	3	-0.572	101	67.7	inactive
34	OR7A5	4	-0.0972	82.4	77.1	inactive
35	RBM8A	1	-0.438	3.5	2.58	inactive
36	RBM8A	2	-0.0784	2.58	2.44	inactive
37	RBM8A	3	0.355	2.71	3.47	inactive
38	RBM8A	4	-0.0112	12.5	12.4	inactive
39	NHERF1	1	-0.279	65.9	54.3	inactive
40	NHERF1	2	-0.156	88.6	79.5	inactive
41	NHERF1	3	-0.516	118	82.2	inactive
42	NHERF1	4	-0.275	44.2	36.5	inactive
43	CCNF	1	0.32	45	56.2	inactive
44	CCNF	2	0.239	57.9	68.3	inactive
45	CCNF	3	-0.181	67.4	59.5	inactive
46	CCNF	4	-0.411	84.5	63.5	inactive
47	PTPRC	1	-0.0299	124	121	inactive
48	PTPRC	2	-0.0713	108	103	inactive
49	PTPRC	3	0.102	105	112	inactive
50	PTPRC	4	-0.0991	52.2	48.7	inactive
51	FLT1	1	-0.019	88	86.8	inactive
52	FLT1	2	-0.173	51.5	45.6	inactive
53	FLT1	3	-0.5	90.1	63.7	inactive
54	FLT1	4	-0.17	98.1	87.2	inactive
55	CYP8B1	1	-0.0755	60.1	57	inactive
56	CYP8B1	2	-0.0051	78	77.7	inactive
57	CYP8B1	3	0.0691	97.5	102	inactive
58	CSNK1E	1	-0.204	63.2	54.9	inactive
59	CSNK1E	2	-0.0994	46.6	43.5	inactive
60	CSNK1E	3	-0.283	59.8	49.1	inactive
61	CSNK1E	4	0.00355	109	109	inactive
62	RGS5	1	-0.386	86	65.8	inactive
63	RGS5	2	-0.136	57.6	52.4	inactive
64	RGS5	3	-0.0527	107	103	inactive
65	RGS5	4	-0.562	99.1	67.1	inactive
66	SLC25A17	1	-0.331	94.8	75.4	inactive
67	SLC25A17	2	-0.71	41.2	25.2	inactive
68	SLC25A17	3	0.0135	84.9	85.7	inactive
69	PLXNA4	1	-0.729	39.8	24	inactive
70	PLXNA4	2	-0.229	12.8	10.9	inactive
71	PLXNA4	3	-0.408	52.9	39.9	inactive
72	PLXNA4	4	0.113	86.4	93.5	inactive
73	WNT3	1	0.158	60.6	67.6	inactive
74	WNT3	2	-0.0043	90.8	90.5	inactive
75	WNT3	3	-0.0288	54.6	53.5	inactive
76	WNT3	4	-0.137	53.6	48.8	inactive
77	UBE2T	1	-0.0128	81	80.3	inactive
78	UBE2T	2	-0.389	47.3	36.1	inactive
79	UBE2T	3	0.101	106	113	inactive
80	UBE2T	4	-0.0967	63.5	59.4	inactive
81	TCN2	1	0.573	7.75	11.5	inactive
82	TCN2	2	0.0127	81.1	81.8	inactive
83	TCN2	3	0.000157	69.7	69.7	inactive
84	TCN2	4	-0.048	93	89.9	inactive
85	GPR52	1	-0.461	66.2	48.1	inactive
86	GPR52	2	-0.205	93.2	80.9	inactive
87	GPR52	3	0.22	81.5	94.9	inactive
88	GPR52	4	-0.206	78	67.6	inactive
